{"sequences": {"note": "Sequences of proteins named here, by UniProt entry; tags and fusion partners are left off.", "UniProt P54709, whole entry": "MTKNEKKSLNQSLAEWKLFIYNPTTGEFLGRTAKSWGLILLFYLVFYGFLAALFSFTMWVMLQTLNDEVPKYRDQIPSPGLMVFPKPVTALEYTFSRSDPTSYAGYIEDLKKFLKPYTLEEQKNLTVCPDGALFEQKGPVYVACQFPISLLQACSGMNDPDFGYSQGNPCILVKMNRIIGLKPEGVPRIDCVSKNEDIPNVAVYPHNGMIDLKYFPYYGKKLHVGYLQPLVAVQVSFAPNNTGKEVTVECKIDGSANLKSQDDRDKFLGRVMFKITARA"}, "source": "the supplement of paper PMC6411743", "target": "ATP1B3 (UniProt P54709)", "assay": "NP40-soluble protein abundance relative to vehicle (solubility fold change) (ratio); higher = more soluble protein in presence of AMP-PNP", "procedure,_shortened": "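Data come from three independent experiments in which Dounce-homogenised Jurkat crude lysate was treated at eight concentrations from 0.1 to 10 mM. Treatment ran 10 min at room temperature and then 3 min at 37 °C, after which 0.8% NP40 and benzonase were added for 60 min at 4 °C before ultracentrifugation. The supernatant underwent TMT labelling and LC-MS/MS, and vsn-normalised intensities were expressed as fold change against the detergent-processed vehicle in each replicate.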", "note": "± gives the standard deviation of the averaged measurements. This is a selection; strong and weak results do not stand in their true shares. Most entries show no effect beyond the scatter of the controls.", "data": [{"compound": "Nc1ncnc2c1ncn2[C@@H]1O[C@H](COP(=O)(O)OP(=O)(O)NP(=O)(O)O)[C@@H](O)[C@H]1O", "note": "[adenylyl imidodiphosphate]", "values": [{"measurement": "NP40-soluble protein abundance", "setting": "concentration: 0.1mM", "value": "0.993 ± 0.012"}, {"measurement": "NP40-soluble protein abundance", "setting": "concentration: 0.5mM", "value": "1.03 ± 0.022"}]}]}
